Measurements from publication PMC12193022.

Sequences of proteins named here, by UniProt entry; tags and fusion partners are left off. A change or cut given only in a name is not applied to a line headed by its entry.
UniProt Q8I5L2: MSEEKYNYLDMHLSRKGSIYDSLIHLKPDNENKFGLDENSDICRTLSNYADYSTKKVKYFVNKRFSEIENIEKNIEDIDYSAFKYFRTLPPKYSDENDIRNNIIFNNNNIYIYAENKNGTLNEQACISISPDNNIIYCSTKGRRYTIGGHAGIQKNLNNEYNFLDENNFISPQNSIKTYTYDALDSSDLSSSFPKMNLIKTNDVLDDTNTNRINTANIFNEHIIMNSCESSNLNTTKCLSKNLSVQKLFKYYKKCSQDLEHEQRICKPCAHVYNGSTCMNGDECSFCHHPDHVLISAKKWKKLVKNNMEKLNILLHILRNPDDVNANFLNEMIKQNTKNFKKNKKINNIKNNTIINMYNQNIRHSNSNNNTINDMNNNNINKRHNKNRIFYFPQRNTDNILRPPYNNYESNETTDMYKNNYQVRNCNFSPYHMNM
UniProt Q8I515: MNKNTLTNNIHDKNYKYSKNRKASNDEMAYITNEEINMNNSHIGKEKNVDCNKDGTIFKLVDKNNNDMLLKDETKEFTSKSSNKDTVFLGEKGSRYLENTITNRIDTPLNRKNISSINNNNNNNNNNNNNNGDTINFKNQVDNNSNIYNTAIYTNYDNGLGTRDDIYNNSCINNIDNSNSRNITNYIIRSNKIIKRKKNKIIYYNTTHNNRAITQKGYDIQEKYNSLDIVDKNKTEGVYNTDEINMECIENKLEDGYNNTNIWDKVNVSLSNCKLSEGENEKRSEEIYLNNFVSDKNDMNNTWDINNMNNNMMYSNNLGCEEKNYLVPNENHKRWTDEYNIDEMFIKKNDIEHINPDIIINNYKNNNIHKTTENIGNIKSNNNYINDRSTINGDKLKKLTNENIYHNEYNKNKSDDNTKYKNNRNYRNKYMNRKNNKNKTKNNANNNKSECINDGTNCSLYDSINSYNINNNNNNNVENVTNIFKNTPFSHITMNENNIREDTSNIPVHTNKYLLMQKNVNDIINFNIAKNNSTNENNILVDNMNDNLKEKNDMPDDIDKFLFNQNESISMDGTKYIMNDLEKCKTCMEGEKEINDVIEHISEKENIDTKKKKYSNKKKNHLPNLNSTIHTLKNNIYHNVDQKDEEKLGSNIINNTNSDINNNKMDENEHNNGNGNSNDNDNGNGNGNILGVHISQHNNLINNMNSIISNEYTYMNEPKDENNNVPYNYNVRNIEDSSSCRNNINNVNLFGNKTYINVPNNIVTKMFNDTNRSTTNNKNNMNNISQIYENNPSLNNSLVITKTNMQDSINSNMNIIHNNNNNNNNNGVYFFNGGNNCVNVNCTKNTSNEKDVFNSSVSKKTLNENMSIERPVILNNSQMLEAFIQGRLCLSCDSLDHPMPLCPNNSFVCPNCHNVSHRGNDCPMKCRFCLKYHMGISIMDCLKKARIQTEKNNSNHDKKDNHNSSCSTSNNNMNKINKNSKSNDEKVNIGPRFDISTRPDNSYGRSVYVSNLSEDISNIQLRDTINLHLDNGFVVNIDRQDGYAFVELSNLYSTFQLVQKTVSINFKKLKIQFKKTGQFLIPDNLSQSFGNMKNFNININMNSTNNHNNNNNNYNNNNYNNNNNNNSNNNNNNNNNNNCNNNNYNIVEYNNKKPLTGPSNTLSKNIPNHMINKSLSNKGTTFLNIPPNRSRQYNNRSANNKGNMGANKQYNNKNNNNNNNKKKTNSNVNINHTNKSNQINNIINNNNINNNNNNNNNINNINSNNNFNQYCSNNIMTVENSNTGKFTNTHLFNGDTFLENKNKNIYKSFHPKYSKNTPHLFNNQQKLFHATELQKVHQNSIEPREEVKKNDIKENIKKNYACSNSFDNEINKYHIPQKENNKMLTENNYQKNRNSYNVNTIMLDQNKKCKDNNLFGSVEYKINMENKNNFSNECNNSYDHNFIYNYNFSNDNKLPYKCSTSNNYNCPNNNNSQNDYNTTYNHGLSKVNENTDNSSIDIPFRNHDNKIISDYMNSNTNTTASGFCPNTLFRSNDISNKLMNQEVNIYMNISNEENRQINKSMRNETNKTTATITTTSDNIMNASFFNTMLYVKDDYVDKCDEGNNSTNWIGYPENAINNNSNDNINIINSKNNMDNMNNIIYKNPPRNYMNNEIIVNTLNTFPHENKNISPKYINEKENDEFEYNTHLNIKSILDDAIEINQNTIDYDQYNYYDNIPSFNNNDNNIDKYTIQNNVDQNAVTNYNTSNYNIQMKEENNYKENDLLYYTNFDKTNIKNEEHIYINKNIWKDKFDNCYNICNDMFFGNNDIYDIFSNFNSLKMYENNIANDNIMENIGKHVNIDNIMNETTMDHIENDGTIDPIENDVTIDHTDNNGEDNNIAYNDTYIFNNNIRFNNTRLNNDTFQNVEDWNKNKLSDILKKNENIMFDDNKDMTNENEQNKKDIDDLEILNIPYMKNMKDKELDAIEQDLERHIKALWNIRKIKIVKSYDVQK
UniProt Q8ILS9: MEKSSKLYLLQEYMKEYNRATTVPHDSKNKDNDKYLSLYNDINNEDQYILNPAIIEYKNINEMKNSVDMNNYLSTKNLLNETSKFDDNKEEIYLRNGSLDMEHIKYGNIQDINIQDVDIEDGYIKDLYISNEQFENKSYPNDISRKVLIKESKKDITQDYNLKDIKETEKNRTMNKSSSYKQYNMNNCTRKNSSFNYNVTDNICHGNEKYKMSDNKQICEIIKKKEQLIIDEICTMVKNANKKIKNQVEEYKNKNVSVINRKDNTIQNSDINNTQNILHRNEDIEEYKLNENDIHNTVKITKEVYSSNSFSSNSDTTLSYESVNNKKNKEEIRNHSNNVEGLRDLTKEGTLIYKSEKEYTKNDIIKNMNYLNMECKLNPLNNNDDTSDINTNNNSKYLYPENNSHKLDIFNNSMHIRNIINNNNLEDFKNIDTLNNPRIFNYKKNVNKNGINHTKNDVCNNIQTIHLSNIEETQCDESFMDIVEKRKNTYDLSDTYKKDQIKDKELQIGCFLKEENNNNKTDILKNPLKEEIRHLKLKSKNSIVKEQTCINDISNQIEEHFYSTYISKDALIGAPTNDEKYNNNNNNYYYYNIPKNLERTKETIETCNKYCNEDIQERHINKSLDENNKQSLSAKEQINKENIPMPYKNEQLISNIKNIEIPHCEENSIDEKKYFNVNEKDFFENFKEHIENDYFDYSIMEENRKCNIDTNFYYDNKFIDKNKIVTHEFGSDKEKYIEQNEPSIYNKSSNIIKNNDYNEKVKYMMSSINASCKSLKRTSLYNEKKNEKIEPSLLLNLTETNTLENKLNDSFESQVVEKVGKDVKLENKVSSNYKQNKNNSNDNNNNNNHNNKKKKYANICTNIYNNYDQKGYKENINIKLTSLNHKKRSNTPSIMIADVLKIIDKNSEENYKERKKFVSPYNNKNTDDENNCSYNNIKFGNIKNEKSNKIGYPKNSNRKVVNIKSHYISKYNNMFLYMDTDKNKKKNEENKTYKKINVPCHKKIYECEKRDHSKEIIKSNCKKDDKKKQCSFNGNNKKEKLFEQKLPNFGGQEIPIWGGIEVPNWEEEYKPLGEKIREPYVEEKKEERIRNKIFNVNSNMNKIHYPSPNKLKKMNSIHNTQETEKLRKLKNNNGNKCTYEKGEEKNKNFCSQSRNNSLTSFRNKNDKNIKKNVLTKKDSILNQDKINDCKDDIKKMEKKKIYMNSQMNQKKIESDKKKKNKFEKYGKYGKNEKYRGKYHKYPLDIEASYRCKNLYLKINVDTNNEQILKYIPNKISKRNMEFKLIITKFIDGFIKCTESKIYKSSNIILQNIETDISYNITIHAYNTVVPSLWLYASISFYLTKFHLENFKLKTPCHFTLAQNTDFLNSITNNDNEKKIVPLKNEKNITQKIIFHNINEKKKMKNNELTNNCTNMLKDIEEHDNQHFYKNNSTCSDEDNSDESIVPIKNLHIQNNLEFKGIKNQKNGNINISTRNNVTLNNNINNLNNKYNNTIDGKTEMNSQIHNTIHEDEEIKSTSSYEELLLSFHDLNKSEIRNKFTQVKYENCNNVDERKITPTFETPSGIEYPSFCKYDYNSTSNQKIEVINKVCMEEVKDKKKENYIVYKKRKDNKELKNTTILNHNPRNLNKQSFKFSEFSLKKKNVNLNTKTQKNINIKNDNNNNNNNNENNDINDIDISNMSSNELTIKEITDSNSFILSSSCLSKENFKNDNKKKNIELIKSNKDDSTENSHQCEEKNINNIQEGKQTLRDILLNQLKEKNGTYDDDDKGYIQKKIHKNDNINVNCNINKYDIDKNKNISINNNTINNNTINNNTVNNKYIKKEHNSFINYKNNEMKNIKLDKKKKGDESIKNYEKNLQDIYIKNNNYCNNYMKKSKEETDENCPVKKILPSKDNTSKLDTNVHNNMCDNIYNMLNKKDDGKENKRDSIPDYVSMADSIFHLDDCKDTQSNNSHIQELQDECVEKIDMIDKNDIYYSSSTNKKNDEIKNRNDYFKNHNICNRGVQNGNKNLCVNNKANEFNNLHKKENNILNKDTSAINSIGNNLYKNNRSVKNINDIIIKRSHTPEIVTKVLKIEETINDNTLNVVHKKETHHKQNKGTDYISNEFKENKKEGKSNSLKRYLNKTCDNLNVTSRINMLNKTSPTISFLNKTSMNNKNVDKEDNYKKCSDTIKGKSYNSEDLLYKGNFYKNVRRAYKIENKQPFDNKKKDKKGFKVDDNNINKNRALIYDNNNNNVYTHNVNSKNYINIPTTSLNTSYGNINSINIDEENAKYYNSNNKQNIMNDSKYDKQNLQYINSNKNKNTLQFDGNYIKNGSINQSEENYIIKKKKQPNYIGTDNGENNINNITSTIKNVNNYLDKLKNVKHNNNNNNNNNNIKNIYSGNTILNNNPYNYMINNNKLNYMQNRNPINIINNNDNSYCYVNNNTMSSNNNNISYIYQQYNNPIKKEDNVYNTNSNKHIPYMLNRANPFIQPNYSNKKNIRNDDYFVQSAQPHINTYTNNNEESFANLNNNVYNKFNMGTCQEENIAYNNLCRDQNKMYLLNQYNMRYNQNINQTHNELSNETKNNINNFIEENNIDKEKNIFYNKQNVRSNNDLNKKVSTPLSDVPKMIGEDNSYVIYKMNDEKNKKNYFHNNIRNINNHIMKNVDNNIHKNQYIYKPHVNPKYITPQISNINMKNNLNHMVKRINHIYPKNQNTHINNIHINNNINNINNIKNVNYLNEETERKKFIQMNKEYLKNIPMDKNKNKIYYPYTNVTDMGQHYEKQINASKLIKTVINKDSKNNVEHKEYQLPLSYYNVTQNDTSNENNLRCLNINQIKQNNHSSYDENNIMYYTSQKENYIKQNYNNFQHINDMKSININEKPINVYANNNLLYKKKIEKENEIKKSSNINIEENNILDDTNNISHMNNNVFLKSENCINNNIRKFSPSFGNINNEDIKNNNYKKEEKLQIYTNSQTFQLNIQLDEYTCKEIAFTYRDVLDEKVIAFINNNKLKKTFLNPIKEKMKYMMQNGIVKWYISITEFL
UniProt Q8I5P2: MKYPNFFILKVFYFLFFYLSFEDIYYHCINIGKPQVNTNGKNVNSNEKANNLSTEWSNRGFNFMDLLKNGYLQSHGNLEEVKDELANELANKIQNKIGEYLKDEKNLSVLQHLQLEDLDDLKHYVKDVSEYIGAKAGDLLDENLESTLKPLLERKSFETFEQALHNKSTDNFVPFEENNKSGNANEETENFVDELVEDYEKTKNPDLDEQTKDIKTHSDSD
UniProt Q8II77: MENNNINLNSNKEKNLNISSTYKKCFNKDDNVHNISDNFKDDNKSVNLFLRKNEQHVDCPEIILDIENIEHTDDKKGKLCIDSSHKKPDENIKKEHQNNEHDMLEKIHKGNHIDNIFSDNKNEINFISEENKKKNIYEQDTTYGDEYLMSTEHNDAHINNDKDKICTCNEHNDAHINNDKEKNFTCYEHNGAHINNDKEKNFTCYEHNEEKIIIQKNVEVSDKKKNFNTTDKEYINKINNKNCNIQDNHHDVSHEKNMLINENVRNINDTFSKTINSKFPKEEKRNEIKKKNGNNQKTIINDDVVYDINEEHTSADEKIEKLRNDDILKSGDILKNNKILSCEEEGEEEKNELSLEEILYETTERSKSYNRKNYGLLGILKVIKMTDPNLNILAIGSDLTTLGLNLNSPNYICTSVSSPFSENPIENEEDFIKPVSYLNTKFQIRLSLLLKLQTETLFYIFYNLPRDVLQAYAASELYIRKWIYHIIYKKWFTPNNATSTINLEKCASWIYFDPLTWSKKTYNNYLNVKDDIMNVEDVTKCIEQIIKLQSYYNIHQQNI

B1: ornithine aminotransferase PfOAT (enzyme, UniProt Q6LFH8 1-414)
chain: MDFVKELKSSQDYMNNELTYGAHNYDPIPVVLKRGKGVFVYDIEDRRYYDFLSAYSSVNQGHCHPDILNAMINQAKKLTICSRAFFSDSLGVCERYLTNLFGYDKVLMMNTGAEASETAYKLCRKWGYEVKKIPENSAKIIVCNNNFSGRTLGCVSASTDKKCKNNFGPFVPNFLKVPYDDLEALEKELQDPNVCAFIVEPVQGEAGVIVPSDSYFPGVASLCKKYNVLFVADEVQTGLGRTGKLLCTHHYGVKPDVILLGKALSGGHYPISAILANDDVMLVLKPGEHGSTYGGNPLAAAICVEALKVLINEKLCENADKLGAPFLQNLKEQLKDSKVVREVRGKGLLCAIEFKNDLVNVWDICLKFKENGLITRSVHDKTVRLTPPLCITKEQLDECTEIIVKTVKFFDDNL
B2: female gametocyte protein PfFGP1 (protein, UniProt Q8IB92 1-637)
chain: MLNIFSNEDLSLPAEKEEEEEEKLEKSKDKKDLDKIESKKIDRKFSHGSYLSKYDSKRLYYNKRLETKIKSLRKSFRKRYRIVRNNLMKLIKVLKEFPDIKQIKEHETTDGKITINIDVVQKLNKIMDKINIEKLKYNNKKEKRKKKKGIKNKSRNINSNSNTNRNRSRYKSEEYLYPKKKLSKISFSSTLFPLSKRIRYKSNINSLSMENKKNKRKRKKKKKKKKKENNIQNEKLHKRKNIYSKRGNIFSKSKTFGKLHRRRIYKNPYEHRKTFYENIYENLNENLNQHIYENMYENLNQNIYENMYENLNTNMFEITNDNNPQKKYNNTYNNMFENLYGNVYPNELELSYERELDNVYKSLNVNGSHNLNNNSHKYKFQKTFYHNALQNYYPNTSLPFNKNYLKNNNFYYYYMNLKNKKHQNVNHYNDTNNVLVTDFYMYSTLNASFNRLNSLKNKNNFHLFNRNIPNVYLKRANDIIGFNNNNNNNNNNNNNNNNNNNNNNNNNNNSNNNNKIESTYMEHDFLKNLPYTMNNNSNNNMLLKYYPEQHTYVHNITESFFSPNKIFTIRKGKKNKTTNQNKHKLKKFVKDEKIRNLLRTATNEDELLRAINFAKNAGLEFEAKLGDKKLNKLKCTS
B3: SUZ domain-containing protein PF3D7_0218200 (protein, UniProt C6S3B8 1-807)
chain: MAVESKPNNSSKEKNEENDIINKCDDSNKINGKENIFAVEKVGINESGHMSNDNINKNQEKNKKKKKKKNTHKKVNINNTHINIHTTNDKNNGQDINKPEVIERDNIINIKNDTNNILDSSYNEEGNENNRNDINNNNNNNNININNNNINNSCSNNYGLKKKITLLKRNDIKDEGYNNENITTLNNKNNLKNNNNYNDNRNNNNNNKNNINNNNNNNCCSEKTLEQREKEYNKIRARIFSNFNKKQKNVQKTEQNNLNHTYLNNNIINNINNGDNQYAYINNFYHIYHNNSYNHIYRQNNIPICNINNHAPNIEKLNNPYYYHDNHIAYTNYMYSTQNKMNNMKTKQIGHYGINNEDNNNNNNNNINNNNNNNINNNNINNNNVPLCIPQLDNYNKTKNNFNQGTNNFNQGTNNFNKCTNNFNNAKNHIKHNINNTNKNIEHLNNHSIYNFVYPENKNIYDANGNLINNNISYTQLKMNNNINFNIHMESPINQQHNNTFKVNNDTNFFNEPTNKMKKKNKEKKNIHFNNNNNNNNNKCLYKDINQNDHNNSIINTNQNFDHINNVKNTEQNLQKKHNKMSQVSKQSNNKNNKNNSHLKKQININTNNNMDNKNNSHISKNVIVDDNKLKSSHADNSNEIVTKGKKKKNTNKKKKINNINSVNNVNNINSMNNINSMNNIISMNNVNNMNNPMYFPNVNIQKDDSNIALLYNNKPNIDFNNFQLNHINNHMIQNNIMTNNVMLNNNLTTSNFNYNLINYSYEPFYEENLMNDLDYCRDISLYEKRYDRGDNLQQNHKRYDIDFPSL
B4: MKT1 domain-containing protein PF3D7_1003700 (protein, UniProt Q8IK00 1-1308)
chain: MRVRRLQSYLTENNLLKKSSLENIKNLTLGIDALYFLRICSDLKDILSDVSGCISPCIFHMIDKQCEYFKKWDIKIIFIFDGITPKGHKLFSAHYHQYIDEGWLYYVNDEKKLSQKSFSEVNNICNSDISFLLFHYLKYKGYECIYAPYLAISQLAYFLEINLVDIVFGPPTLGLHNVTKIILNIVWKKNYFEWIDILYLLKMWNINKEQFIDACLLAGTEYCLTFPYLNLSHFNNGYKQFNFGTSIEFIKQSPLICYLQHFPNDELRKSHMNAYCLCKSMLKYPLVFLCTGQVNCFFFHSNKDQKCLQKKCDASILNDHTGHNEDGDHVDNASIKKKKKINKKDIISTSDEQNDDSDCSIYNKSSYDKNEEDKFFNNKYNRTITNISTNDCIKLSKDGYLKGDKILDKREEDTEQNYHNSKISYDSYCEQDKKDNTIEHPEVAKEKGKYKNSKLIYEHNSDNSKDRKDTNEDTVMEDSTKHIKDIYAKENYKENDIYKKKNHNNDKENISKLVPKDYIKVVGAKFPTCVYYLMSIGLLSKKLLCVLAMGEWIDYSHPIIDSFEYRDTLIDLREYRCRILGLVSIKLNPFFYKRKVKFFDYGYYINNIMDKDNKATYLNILFNDNFLWKINKDNVSEEMNRQNVKNVDLQFVLRWHLYSESKSISLVAKKCELYDEDMKERKASNDKEKDIYELESSNDNNRGHNNNSDDNNGGDNNNGGDNNNGGDNNNGGDNNNGGVNTNGGDNNNGGDNNNGGDNTNSSNDTNRSDDDNTDPSNNSDYSSNDVDNYEDDDYNNYSDYCKKSNEHTKRKKKYMHYNKHMIYKYNSYYKNILRTNNQNFHSFLCLVYFMFLENLDIFTKNCGVTLFGLLLSEVKNKNIDSNILIIFELFKFGFLTTEALLPPDGKTYPENAYASIQNNNKLDEQDKKSVLLLSRIYSLYNSNIDHSRTYEGLIDFDLCAFFAVVKIIKKTLRQLLQACVTNVLLTNMELIHILPENLYNPFDIHICGFFVTNHFMGVLIKYFLLFDFDDIQNEKETLKRTSDKNMESNKMNNDIETMNDHLLKDKLENQKETEHLSKNNDFKGYDMTTNNHISITQPNKKNNDHINMKEINDKFYTNEQPEDKHMKVDKNQKYGINQVEHKDKRSLIELENNDKNIIYKENYNENGNNSYVYSDEHNLSDDSKTNNYEATHKKHENNLDHKKKEEYKIDEEYCQTPINDDSQNNFNVFEKAIRKKFPSFVNPINDLCNAINTWRDHLCLITQLEQHTNVYDLVSDLKAADNFLEKKISYIGLDKSQTYNRICLSNNK
B5: protein of developing gametocytes PfPDG2 (protein, UniProt C6KSM0 1-1437)
chain: MSVGVPVTKSFNKLKKYPYEINKFDRRETSEYFYLPVDCPRMKKCDDAYCPLAHTKLEKIFHPIVYKTQACQMAKDGACDYFQKCAFYHDSNDKNEAHINWTIWEKKWDKWRNNIDHILTQHNKNDKEIRRKVESILKIRMPHFNYGSNKNNVFLNKNVPTFHTTWQNLSSSTNGNNNMNNTIINNMNNTLSNINSNNNNNNNNNNNNNKMHNLNNMLCSSLNSSSVPCSTSLFNNTWNKSLSNSKKNIKGMEENKNKNSSCWVNELNDINNMTPDKCSNMNNTFVNKNNMYFDETLGYNNNMIDCGMNFDILDNNAYKVVEFCFTDYENNKNKNNCNWKDGNENFNNSSMTSYFSNNGKILENEKSNIYHSNNNYNNNNNNDNNQTSTHFDEALNYNKTCEYLPNLLTSEEVNDNNNKCKKFNTLPTSFKDNIAGNIMNNSNNSCDMLNSKYVLNNSNNTSIFDNYTNLSTLFDMNDSKMNNLTNFSNCNTLEHLSFDELNKSNNNNDDFFISNEKSEDGKNLKFSQFLSSNSSNGVRYGANNNDLSIVNMCGLDTNDNNKKEDNPMDNNNNNNNNNDDNINNNNNNNNNNFLNKEESKEAKTEGTNSNNIQSNENNTKPGNNKNSKKNKNKKNALNNIRNNSINRNLKGVNFSEVVSLNNNEMKSEVQEKKKNNKKENKNNKNNCKEKDQEENKISNEKHINKKEKNKNAGEDDEEDVTITDINVLEKEKSKNQKIKNNENQHNKKNNIGQNNINNNNNNNNSKNGGRNSKKGGDIINNQQTVAGNNKKSEIKNGEKNEKSNNHNNNDNLFNNKNNCSYTQMNKKFTDVNVIENNHISDVNHAKSSISVQSKNNENNMNKEKDNKKKNNNNNNNNNNNNNNNNNNNNNNNNNNNNNNNNILNNISNKENKVITNQKNNGLVGNMSGTIISTNHSNNNERGNKKYMNNYHVNSHVHNKENKNNINNRINVISNNNNNINNIEEDSKNNSNDILTNLNDTNIHQLLMNHGQLDDKDNMKNNKKDDNNIAFNVLTNKENKCNNNYNNIGRAITTAVGTSSFINNSNIGTENKNFVNDIIGDIHEKGRDNNSIFLETDNYNNLNKLIMQENENMFNKNIRSNVKNILDYITMENKNMNNNNNNNNNNNNNNNNSNISDDNALFSNNNYMNKHENLYTNNMINGNKIVDFDNMRNMNSNYNKKNDCMFLFKDNLSISGLGNVNLCNEKNMINESLNNIFKGDNINNNMSLGINSPCLTKEDFFNCAGNNNVVENKSKEYNISDNGINDSCDYTNNLLNIFLSCNSINENFDDANEYNNKINGFKGENHYSYNNVGKNISTDINESYNNSENHFNLFGNYNFFGNNCIHCKSYKNEIKNLTLQIKLMKEEILKYKQLIMSSGINEKFEKNFNSSNFSWNSTKNFNDTYEHKNYVSSIEAND

biological target: PfRNF1-GFP-BirA fusion protein (P. falciparum) (UniProt O97260); experiment: proximity labelling; BioID-MS: Percoll-enriched immature gametocytes of line PfRNF1-pffnpa-GFP-BirA (control WT NF54) treated with 50 µM biotin for 24 h; streptavidin-purified proteins, LC-MS with label-free quantification; at least two-fold enrichment over controls in three biological replicates, FDR 0.01

binding, binds:
PfGD1 (from UniProt C0H566), PfFD2 (from UniProt Q8IHQ0), PfFD4 (from UniProt Q8I5L2), CAF1 (from UniProt C0H4T9), Kelch domain-containing protein PF3D7_1131600 (from UniProt Q8II48 1-2763), PfMD3 (male development protein 3) (from UniProt O97271), ubiquitin-specific protease PF3D7_0904600 (from UniProt Q8I3A3 1-1770) (enzyme), ubiquitin-like protein PF3D7_0922100 (from UniProt Q8I2T2 1-1542), PfFD1 (from UniProt Q8I515), PABP1 (from UniProt Q8I5H4), PfPUF1 (from UniProt Q8I3S3), protein of developing gametocytes PfPDG1 (from UniProt Q8ILS9 1-3026), PfMDV1 (male development gene 1) (from UniProt Q8I5P2), PfZNF4 (zinc finger protein 4) (from UniProt Q8II18), CCR4-NOT component PfNOT2 (from UniProt Q8II77), nuclear export mediator factor PfNEMF (from UniProt A0A144A0J9), ATP-dependent RNA helicase DBP1 (from UniProt Q8IAU1) (enzyme), C3H1-ZFP PF3D7_0522900 (from UniProt Q8I3N4 1-1552), NOT1-G (from UniProt Q8ILS4), NOT1 (from UniProt Q8IIW4)

biological target: PfRNF1-GFP-BirA fusion protein (P. falciparum) (UniProt O97260); experiment: as above; remark: another data set of the same source

binding, binds:
B1, B2, B3, B4, B5

Results are given in words; binding and its absence hold for the method and conditions named. In cells and extracts the contact can be indirect. These calls come from enrichment with a bait or labelling near it, and not all partners need be listed.
